Measurements published in article doi:10.64898/2025.12.16.694677.
Results are given in words; binding and its absence hold for the method and conditions named. Some entries that bind do so weakly or less than the wild type.

T1: Gremlin-1 (GREM1), not biotinylated, as used in the competitive LOCI assays (human) (UniProt O60565)
T1 sequence: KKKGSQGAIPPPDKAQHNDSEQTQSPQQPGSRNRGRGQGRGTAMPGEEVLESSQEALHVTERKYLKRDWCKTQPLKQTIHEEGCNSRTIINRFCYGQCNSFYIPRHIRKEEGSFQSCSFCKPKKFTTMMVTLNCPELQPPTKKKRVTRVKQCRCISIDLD


Target: T1, Gremlin-1 (GREM1), not biotinylated, as used in the competitive LOCI assays (human)
Experiment: AlphaScreen or HTRF

Row | binding | Binder
1 | binds | biotinylated BMP-2 (bs-48015P-Biotin, Bioss) (ligand, UniProt P12643 283-396, biotin (site not stated)) QAKHKQRKRLKSSCKRHPLYVDFSDVGWNDWIVAPPGYHAFYCHGECPFPLADHLNSTNHAIVQTLVNSVNSKIPKACCVPTELSAISMLYLDENEKVVLKNYQDMVVEGCGCR
2 | binds | BMP-4 (ab231930, Abcam) (ligand, UniProt P12644 293-408) SPKHHSQRARKKNKNCRRHSLYVDFSDVGWNDWIVAPPGYQAFYCHGDCPFPLADHLNSTNHAIVQTLVNSVNSSIPKACCVPTELSAISMLYLDEYDKVVLKNYQEMVVEGCGCR
